Experimental data as given in PMC11250566.
Results are given in words; binding and its absence hold for the method and conditions named. In cells and extracts the contact can be indirect. Some binding calls cover weakened binding; strength is not graded here.

Sequences of proteins named here, by UniProt entry; tags and fusion partners are left off.
UniProt Q00839: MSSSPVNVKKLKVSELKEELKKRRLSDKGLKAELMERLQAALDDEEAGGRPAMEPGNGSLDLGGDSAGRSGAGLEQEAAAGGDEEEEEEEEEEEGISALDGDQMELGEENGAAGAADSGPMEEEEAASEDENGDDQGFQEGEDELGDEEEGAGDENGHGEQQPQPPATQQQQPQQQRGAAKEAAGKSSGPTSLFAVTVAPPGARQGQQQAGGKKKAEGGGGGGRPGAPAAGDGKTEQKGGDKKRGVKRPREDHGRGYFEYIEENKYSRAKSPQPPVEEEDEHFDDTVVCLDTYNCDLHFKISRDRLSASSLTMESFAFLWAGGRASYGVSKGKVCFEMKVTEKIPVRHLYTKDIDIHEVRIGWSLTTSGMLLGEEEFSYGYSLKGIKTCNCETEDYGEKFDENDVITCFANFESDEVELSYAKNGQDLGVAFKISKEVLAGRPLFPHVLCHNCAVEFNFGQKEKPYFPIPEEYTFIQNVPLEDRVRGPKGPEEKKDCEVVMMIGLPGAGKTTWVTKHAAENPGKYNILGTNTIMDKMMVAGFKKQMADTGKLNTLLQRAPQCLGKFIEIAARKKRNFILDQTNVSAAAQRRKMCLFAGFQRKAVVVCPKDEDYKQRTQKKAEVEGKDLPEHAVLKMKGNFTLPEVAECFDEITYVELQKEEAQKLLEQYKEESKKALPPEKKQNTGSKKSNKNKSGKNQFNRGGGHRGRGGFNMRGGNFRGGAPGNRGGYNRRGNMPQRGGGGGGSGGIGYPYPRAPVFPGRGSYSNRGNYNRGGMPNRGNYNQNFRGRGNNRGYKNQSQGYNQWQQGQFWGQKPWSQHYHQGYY

Molecular target: hnRNP U in 293 cells (UniProt Q00839)
Test: co-IP; reciprocal immunoprecipitation in 293 cells, with or without RNase A; immunoblot

binding: binds
B1: DGCR8 in 293 cells (protein, UniProt Q8WYQ5 1-773)
chain: METDESPSPLPCGPAGEAVMESRARPFQALPREQSPPPPLQTSSGAEVMDVGSGGDGQSELPAEDPFNFYGASLLSKGSFSKGRLLIDPNCSGHSPRTARHAPAVRKFSPDLKLLKDVKISVSFTESCRSKDRKVLYTGAERDVRAECGLLLSPVSGDVHACPFGGSVGDGVGIGGESADKKDEENELDQEKRVEYAVLDELEDFTDNLELDEEGAGGFTAKAIVQRDRVDEEALNFPYEDDFDNDVDALLEEGLCAPKKRRTEEKYGGDSDHPSDGETSVQPMMTKIKTVLKSRGRPPTEPLPDGWIMTFHNSGVPVYLHRESRVVTWSRPYFLGTGSIRKHDPPLSSIPCLHYKKMKDNEEREQSSDLTPSGDVSPVKPLSRSAELEFPLDEPDSMGADPGPPDEKDPLGAEAAPGALGQVKAKVEVCKDESVDLEEFRSYLEKRFDFEQVTVKKFRTWAERRQFNREMKRKQAESERPILPANQKLITLSVQDAPTKKEFVINPNGKSEVCILHEYMQRVLKVRPVYNFFECENPSEPFGASVTIDGVTYGSGTASSKKLAKNKAARATLEILIPDFVKQTSEEKPKDSEELEYFNHISIEDSRVYELTSKAGLLSPYQILHECLKRNHGMGDTSIKFEVVPGKNQKSEYVMACGKHTVRGWCKNKRVGKQLASQKILQLLHPHVKNWGSLLRMYGRESSKMVKQETSDKSVIELQQYAKKNKPNLHILSKLQEEMKRLAEEREETRKKPKMSIVASAQPGGEPLCTVDV
